The record followed here is the supplement of paper PMC9744312.

The structures appear in SMILES notation. Structures can show the parent of a compound that is named as a salt. Some of the results follow. The data scatter; read single values as rough. Bounds are passed on as bounds.

The assay has as its system Peyronie's disease tunica albuginea primary fibroblasts. As to the kind of experiment: inhibition of TGF-beta1-induced alpha-SMA expression (myofibroblast transformation), relative to TGF-beta1-only and untreated controls; higher = stronger inhibition of myofibroblast transformation. As to conditions: 10 µM; TGF-beta1 10 ng/mL; 72 h.
Regarding `C=C(c1ccc(C(=O)O)cc1)c1cc2c(cc1C)C(C)(C)CCC2(C)C` [Bexarotene], the “inhibition of TGF-beta1-induced alpha-SMA expression” value (“inhibition” below) was -7.07%.
Regarding `CC(C)(C)NCC(O)c1cc(O)cc(O)c1` (configuration not stated) [Terbutaline Sulfate], the “inhibition” value is 14.9%.
For the compound `CCOC(=O)[N-]c1c[n+](N2CCOCC2)no1` [Molsidomine], the “inhibition” value was -29.7%.
Consider `CC[N+](CC)(CC)CCOc1cccc(OCC[N+](CC)(CC)CC)c1OCC[N+](CC)(CC)CC` [Gallamine Triethiodide], for which the “inhibition” value stood at 35.6%.
Next, `NCc1ccc(S(N)(=O)=O)cc1` [Mafenide Acetate]: -5.5%; `NCc1ccc(S(N)(=O)=O)cc1` [Mafenide hydrochloride]: 11.8%; `CN[C@@H]1[C@H](O[C@H]2[C@H](O[C@H]3[C@H](O)[C@@H](O)[C@H](NC(=N)N)[C@@H](O)[C@@H]3NC(=N)N)O[C@@H](C)[C@]2(O)CO)O[C@@H](CO)[C@H](O)[C@H]1O` [Dihydrostreptomycin sulfate]: 6.24%.
Under `CCN(CCCOc1ccc2c(Nc3cc(CC(=O)Nc4cccc(F)c4)[nH]n3)ncnc2c1)CCOP(=O)(O)O` [Barasertib (AZD1152-HQPA)] stands -100%; under `CC/C(=C(\c1ccccc1)c1ccc(OCCN(C)C)cc1)c1ccccc1` [Tamoxifen], 8.93%; under `CC/C(=C(\c1ccccc1)c1ccc(OCCN(C)C)cc1)c1ccccc1` [Tamoxifen Citrate], 71.7%.
Next, `CCc1oc2ccccc2c1C(=O)c1cc(Br)c(O)c(Br)c1` [Benzbromarone]: -4.72%; `COC(=O)[C@]12CCC(C)(C)C[C@H]1[C@H]1C(=O)C=C3[C@@]4(C)C=C(C#N)C(=O)C(C)(C)[C@@H]4CC[C@@]3(C)[C@]1(C)CC2` [Bardoxolone Methyl]: greater than 100%.
For the compound `CCCCC[C@H](O)/C=C/[C@H]1[C@H](O)CC(=O)[C@@H]1CCCCCCC(=O)O` [Alprostadil], the “inhibition” value came to 26%.
For `O=C(O)c1ccccc1` [Benzoic Acid], the “inhibition” value is -19.6%.
Under `CC[C@@H]([C@H](C)O)n1ncn(-c2ccc(N3CCN(c4ccc(OC[C@@H]5CO[C@@](Cn6cncn6)(c6ccc(F)cc6F)C5)cc4)CC3)cc2)c1=O` [Posaconazole] stands 10.5%.
Next, `CN1CCC[C@@H]1CCO[C@](C)(c1ccccc1)c1ccc(Cl)cc1` [Clemastine Fumarate]: 80.2%; `CCOc1ccc(NC(C)=O)cc1` [Phenacetin]: 49.3%; `CC(C)[C@H](N)C(=O)OCC(CO)OCn1cnc2c(=O)[nH]c(N)nc21` (some centres not stated) [Valganciclovir HCl]: -1.22%.
Next, `CC(C(=O)O)c1ccc(C(=O)c2cccs2)cc1` (configuration not stated) [Suprofen]: 29.7%; `CN1CCN(c2nc(C3=C(c4c[nH]c5ccccc45)C(=O)NC3=O)c3ccccc3n2)CC1` [Sotrastaurin]: 23.9%; `NCCCCC(NC(=O)C1CCCN1C(=O)C1CSSCC(N)C(=O)NC(Cc2ccc(O)cc2)C(=O)NC(Cc2ccccc2)C(=O)NC(CCC(N)=O)C(=O)NC(CC(N)=O)C(=O)N1)C(=O)NCC(N)=O` (configuration not stated) [Lypressin Acetate]: greater than 100%.
In the case of `COc1cc2ncnc(Nc3ccc(F)c(Cl)c3)c2cc1OCCCN1CCOCC1` [Gefitinib hydrochloride], the “inhibition” value is 68.8%.
Turning to `COc1cc2ncnc(Nc3ccc(F)c(Cl)c3)c2cc1OCCCN1CCOCC1` [Gefitinib (ZD1839)], the “inhibition” value is -29.3%.
Next, `COc1ccc(C(=O)c2ccccc2O)c(O)c1` [2,2′-Dihydroxy-4-methoxybenzophenone]: -19.6%; `Nc1nc2[nH]cc(CCc3ccc(C(=O)N[C@@H](CCC(=O)O)C(=O)O)cc3)c2c(=O)[nH]1` [Pemetrexed]: 6.45%.
As for `Nc1nc2[nH]cc(CCc3ccc(C(=O)N[C@@H](CCC(=O)O)C(=O)O)cc3)c2c(=O)[nH]1` [Pemetrexed Disodium Hydrate], the “inhibition” value worked out at 22.5%.
With `COCCc1ccc(OCC(O)CNC(C)C)cc1` (configuration not stated) [Metoprolol], the “inhibition” value is -18.3%.
Next, `COCCc1ccc(OCC(O)CNC(C)C)cc1` (configuration not stated) [Metoprolol succinate]: 31.7%; `COCCc1ccc(OCC(O)CNC(C)C)cc1` (configuration not stated) [Metoprolol Tartrate]: -10.7%.
Next, `CCN1CCN(Cc2ccc(Nc3ncc(F)c(-c4cc(F)c5nc(C)n(C(C)C)c5c4)n3)nc2)CC1` [Abemaciclib]: 47.5%; `CCN1CCN(Cc2ccc(Nc3ncc(F)c(-c4cc(F)c5nc(C)n(C(C)C)c5c4)n3)nc2)CC1`: 56.4%; `Nc1ccc(S(=O)(=O)Nc2cncc(Cl)n2)cc1` [Sulfalozine sodium]: greater than 100%.
As to `Cc1cc(N2CCN([C@@H]3CN[C@H](C(=O)N4CCSC4)C3)CC2)n(-c2ccccc2)n1` [Teneligliptin hydrobromide], the “inhibition” value was determined as 19.4%.
With `CC(C)Cc1ccc(C(C)C(=O)O)cc1` (configuration not stated) [Ibuprofen Lysine], the “inhibition” value came to 46.3%.
Under `CC(C)Cc1ccc(C(C)C(=O)O)cc1` (configuration not stated) [Ibuprofen] stands 29%.
In the case of `COc1ccc(CN2CCN(C(c3ccc(F)cc3)c3ccc(F)cc3)CC2)c(OC)c1OC` [Lomerizine 2HCl], the “inhibition” value is -6.21%.
Under `Cc1cc(S(=O)(=O)O)c2c(C)ccc(C(C)C)cc1-2` [Sodium gualenate] stands -13%.
Regarding `Cc1cnc(C(=O)O)c[n+]1[O-]` [Acipimox], the “inhibition” value was found to be 22.5%.
Under `O=C(O)C1(C(=O)O)CCC1.[NH2-].[NH2-].[Pt+2]` [Carboplatin] stands -11.1%.
Next, `CC1=C(C/C=C(\C)CCC[C@H](C)CCC[C@H](C)CCCC(C)C)C(=O)c2ccccc2C1=O` [Vitamin K1]: 96%; `CCCCN1CCCC[C@H]1C(=O)Nc1c(C)cccc1C` [Levobupivacaine HCl]: 10%.
As for `Nc1ccc(C(=O)O)c(O)c1` [Sodium 4-Aminosalicylate], the “inhibition” value is 4.1%.
`O=C1Nc2ccc(Cl)cc2[C@@](C#CC2CC2)(C(F)(F)F)O1` [Efavirenz]: the “inhibition” value was determined as 5.24%.
Under `O=C(O)c1ccccc1Nc1cccc(C(F)(F)F)c1` [Flufenamic acid] stands 51%.
With `Clc1ccc(C(c2ccccc2Cl)C(Cl)Cl)cc1` (configuration not stated) [Mitotane], the “inhibition” value was determined as 8.88%.
For `O=C1O[C@H]([C@@H](O)CO)C(O)=C1O` [Vitamin C], the “inhibition” value worked out at 25.1%.
Turning to `Cc1cccc(C)c1OCC(=O)N[C@@H](Cc1ccccc1)[C@@H](O)C[C@H](Cc1ccccc1)NC(=O)[C@H](C(C)C)N1CCCNC1=O` [Lopinavir], the “inhibition” value is -8.96%.
